The values below come from article PMC10850148.

Holding throughout (experiment): pull-down; about 200 μg purified GST-fused protein on GST beads, equal amount of target protein, 1 h, 4 °C; 20 mM Tris-HCl, 400 mM NaCl; glutathione elution, Coomassie staining; both purified
The target of experiment [1] is GST-tagged OY-M SAP05 D106A (onion yellows phytoplasma (OY-M; Candidatus Phytoplasma asteris)).
Experiment [2] addresses GST-tagged OY-M SAP05 E107A (onion yellows phytoplasma (OY-M; Candidatus Phytoplasma asteris)).
The target in experiment [3] is GST-tagged OY-M SAP05 W85A (onion yellows phytoplasma (OY-M; Candidatus Phytoplasma asteris)).

Results are given in words; binding and its absence hold for the method and conditions named. For part of these data: Binding can be weak; no strength is given.

B1: AtSPL5 ZnF domain (residues 60-124) (domain or fragment, UniProt Q9S758 60-124)
chain: SRLCQVDRCTVNLTEAKQYYRRHRVCEVHAKASAATVAGVRQRFCQQCSRFHELPEFDEAKRSCR
As to B1, the binding result in experiment [1] is listed as “no binding”; in experiment [2], “binds”; in experiment [3] it was “no binding”.
